# The supplement of paper PMC4635364
# Counter-ions that a name gives are not always drawn. Some of the results follow. Repeats in this data set agree poorly, so a single value says little.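 ReNCell VM, a human fetal ventral-midbrain neural progenitor line, was differentiated without mitogens. Blinded raters scored images stained for doublecortin (early neurons) or tyrosine hydroxylase (dopaminergic neurons) against untreated wells (0 = no change). Scores were averaged across repeats and both raters, and compounds averaging 2 or more were selected as hits for retesting.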
# Legend:
# [1] = test system: ReNCell VM; assay: neuronal differentiation score (DCX+ cell fraction vs untreated, manual image score) (score (-3 to 3)); higher = more neuronal differentiation; conditions: 2 uM, 2 weeks
# [2] = test system: ReNCell VM; assay: dopaminergic neuron differentiation score (TH+ cell fraction vs untreated, manual image score) (score (0 to 3)); higher = more TH+ dopaminergic neuron differentiation; conditions: 2 uM, 4 weeks, BDNF 10 ng/ml + GDNF 10 ng/ml
structure (smiles),measurement,setting,value
Cc1cc(=O)n(-c2ccccc2)n1C,neuronal differentiation score,[1]; library: Spectrum,inactive: 0
same,dopaminergic neuron differentiation score,[2]; library: Spectrum,inactive: 0
COc1ccc2[nH]cc(CCNC(C)=O)c2c1,neuronal differentiation score,[1]; library: Spectrum,inactive: 0
same,dopaminergic neuron differentiation score,[2]; library: Spectrum,inactive: 0
COc1cc([C@@H]2c3cc4c(cc3[C@@H](O[C@@H]3O[C@@H]5CO[C@@H](C)O[C@H]5[C@H](O)[C@H]3O)[C@H]3COC(=O)[C@H]23)OCO4)cc(OC)c1O,neuronal differentiation score,[1]; library: Spectrum,inactive: 0
same,dopaminergic neuron differentiation score,[2]; library: Spectrum,inactive: 0
CC(C)NNC(=O)c1ccncc1,neuronal differentiation score,[1]; library: Spectrum,inactive: 0
same,dopaminergic neuron differentiation score,[2]; library: Spectrum,inactive: 0
CN(C)CCN(Cc1ccc(Cl)cc1)c1ccccn1,neuronal differentiation score,[1]; library: Spectrum,inactive: 0
same,dopaminergic neuron differentiation score,[2]; library: Spectrum,inactive: 0
CC1(C2CCCC2)Cc2cc(OCC(=O)O)c(Cl)c(Cl)c2C1=O (stereo not given),neuronal differentiation score,[1]; library: LOPAC,inactive: 0
same,dopaminergic neuron differentiation score,[2]; library: LOPAC,inactive: 0
"Nc1cc(=O)[nH]c(N)n1 [2,4-Diamino-6-pyrimidinone]",neuronal differentiation score,[1]; library: LOPAC,inactive: 0
same,dopaminergic neuron differentiation score,[2]; library: LOPAC,inactive: 0
CC(Oc1ccccc1)C(=O)N[C@@H]1C(=O)N2[C@@H]1SC(C)(C)[C@@H]2C(=O)O (stereo not given in full),neuronal differentiation score,[1]; library: Spectrum,inactive: 0
same,dopaminergic neuron differentiation score,[2]; library: Spectrum,inactive: 0
C#Cc1cccc(Nc2ncnc3cc(OCCOC)c(OCCOC)cc23)c1 [Erlotinib],neuronal differentiation score,[1]; library: Prestwick,inactive: 0
same,dopaminergic neuron differentiation score,[2]; library: Prestwick,inactive: 0
C[C@]1(Cn2ccnn2)[C@H](C(=O)O)N2C(=O)C[C@H]2S1(=O)=O,neuronal differentiation score,[1]; library: Spectrum,inactive: 0
same,dopaminergic neuron differentiation score,[2]; library: Spectrum,inactive: 0
CN(C)C(=N)NC(=N)N,neuronal differentiation score,[1]; library: Spectrum,inactive: 0
same,dopaminergic neuron differentiation score,[2]; library: Spectrum,inactive: 0
CC(C)C[C@H](NC(=O)[C@@H](O)[C@H](N)Cc1ccccc1)C(=O)O [Bestatin],neuronal differentiation score,[1]; library: Tocriscreen,inactive: 0
same,dopaminergic neuron differentiation score,[2]; library: Tocriscreen,inactive: 0
O=C(O)[C@H]1O[C@@H](Oc2cc3oc(-c4ccccc4)cc(=O)c3c(O)c2O)[C@H](O)[C@@H](O)[C@@H]1O [Baicalin],neuronal differentiation score,[1]; library: Phytochemical,inactive: 0
same,dopaminergic neuron differentiation score,[2]; library: Phytochemical,inactive: 0
CN1C(=O)OC(C)(C)C1=O [Trimethadione],neuronal differentiation score,[1]; library: Prestwick,inactive: 0
same,dopaminergic neuron differentiation score,[2]; library: Prestwick,inactive: 0
O=c1cc[nH]c(=O)[nH]1,neuronal differentiation score,[1]; library: Spectrum,inactive: 0
same,dopaminergic neuron differentiation score,[2]; library: Spectrum,inactive: 0
CCc1oc2ccccc2c1C(=O)c1cc(Br)c(O)c(Br)c1,neuronal differentiation score,[1]; library: Spectrum,inactive: 0
same,dopaminergic neuron differentiation score,[2]; library: Spectrum,inactive: 0
CC(C)NC[C@H](O)COc1ccc(CC(N)=O)cc1 [S(-)-Atenolol],neuronal differentiation score,[1]; library: LOPAC,inactive: 0
same,dopaminergic neuron differentiation score,[2]; library: LOPAC,inactive: 0
NC[C@H](O)c1ccc(O)c(O)c1,neuronal differentiation score,[1]; library: Spectrum,inactive: 1
same,dopaminergic neuron differentiation score,[2]; library: Spectrum,inactive: 0
O=C(O)C(S)C(S)C(=O)O (stereo not given),neuronal differentiation score,[1]; library: Spectrum,inactive: 0
same,dopaminergic neuron differentiation score,[2]; library: Spectrum,inactive: 0
CC(=O)Oc1cc(C(C)C)c(OCCN(C)C)cc1C [Moxisylyte hydrochloride],neuronal differentiation score,[1]; library: LOPAC,inactive: 0
same,dopaminergic neuron differentiation score,[2]; library: LOPAC,inactive: 0
NCCCCC(=O)O,neuronal differentiation score,[1]; library: Spectrum,inactive: 0
same,dopaminergic neuron differentiation score,[2]; library: Spectrum,inactive: 0
C=CC1=C(C(=O)O)N2C(=O)[C@@H](NC(=O)/C(=N\OCC(=O)O)c3csc(N)n3)[C@H]2SC1 [Cefixime],neuronal differentiation score,[1]; library: Prestwick,inactive: 0
same,dopaminergic neuron differentiation score,[2]; library: Prestwick,inactive: 0
NC(Cc1ccc(Cl)cc1)C(=O)O (stereo not given),neuronal differentiation score,[1]; library: Spectrum,inactive: 0
same,dopaminergic neuron differentiation score,[2]; library: Spectrum,inactive: 0
N[C@@H](Cc1cc(CP(=O)(O)O)cc(-c2ccccc2Cl)c1)C(=O)O,neuronal differentiation score,[1]; library: Tocriscreen,inactive: 0
same,dopaminergic neuron differentiation score,[2]; library: Tocriscreen,inactive: 0
Clc1ccccc1CN1CCc2sccc2C1 [Ticlopidine hydrochloride],neuronal differentiation score,[1]; library: Prestwick,inactive: 0
same,dopaminergic neuron differentiation score,[2]; library: Prestwick,inactive: 0
Cc1cc(NC(=O)Nc2ccc3c(ccn3C)c2)sn1,neuronal differentiation score,[1]; library: LOPAC,inactive: 0
same,dopaminergic neuron differentiation score,[2]; library: LOPAC,inactive: 0
OC(c1cc(C(F)(F)F)nc2c(C(F)(F)F)cccc12)C1CCCCN1 (stereo not given),neuronal differentiation score,[1]; library: Spectrum,inactive: 0
same,dopaminergic neuron differentiation score,[2]; library: Spectrum,inactive: 0
C=C1C(=O)O[C@@H]2/C=C(\C)CC/C=C(\C)CC[C@@H]12 [Costunolide],neuronal differentiation score,[1]; library: Tocriscreen,inactive: 0
same,dopaminergic neuron differentiation score,[2]; library: Tocriscreen,inactive: 0
O=C(O[C@@H]1Cc2c(O)cc(O)cc2O[C@@H]1c1cc(O)c(=O)c2c(O)c(O)cc([C@H]3Oc4cc(O)cc(O)c4C[C@H]3O)c2c1)c1cc(O)c(O)c(O)c1,neuronal differentiation score,[1]; library: Spectrum,inactive: 0
same,dopaminergic neuron differentiation score,[2]; library: Spectrum,inactive: 0
O=C(O)CCCN1C(=O)c2cccc3cccc(c23)C1=O,neuronal differentiation score,[1]; library: Spectrum,inactive: -1
same,dopaminergic neuron differentiation score,[2]; library: Spectrum,inactive: 0
CC12CCC(C(=O)O)(C(=O)C1=O)C2(C)C (stereo not given),neuronal differentiation score,[1]; library: Natural,inactive: 0
same,dopaminergic neuron differentiation score,[2]; library: Natural,inactive: 0
Cc1c(NC(=O)c2cccnc2)c(=O)n(-c2ccccc2)n1C [Nifenazone],neuronal differentiation score,[1]; library: Prestwick,inactive: 0
same,dopaminergic neuron differentiation score,[2]; library: Prestwick,inactive: 0
C[C@]12CC[C@@H]3c4ccc(O)cc4CC[C@H]3[C@@H]1CC[C@@H]2OC(=O)CCC1CCCC1,neuronal differentiation score,[1]; library: Spectrum,inactive: 0
same,dopaminergic neuron differentiation score,[2]; library: Spectrum,inactive: 0
CSc1nc2cc(Cl)c(Oc3cccc(Cl)c3Cl)cc2[nH]1,neuronal differentiation score,[1]; library: Spectrum,inactive: 0
same,dopaminergic neuron differentiation score,[2]; library: Spectrum,inactive: 0
CCC[C@@H]1C[C@@H](C(=O)N[C@@H]([C@H]2O[C@H](SC)[C@H](O)[C@@H](O)[C@H]2O)[C@H](C)Cl)N(C)C1,neuronal differentiation score,[1]; library: Spectrum,inactive: 0
same,dopaminergic neuron differentiation score,[2]; library: Spectrum,inactive: 1

# Shown with tabs: part of the list above.
structure (smiles)	measurement	setting	value
COc1cc([C@@H]2c3cc4c(cc3[C@@H](O[C@@H]3O[C@@H]5CO[C@@H](C)O[C@H]5[C@H](O)[C@H]3O)[C@H]3COC(=O)[C@H]23)OCO4)cc(OC)c1O	neuronal differentiation score	[1]; library: Spectrum	inactive: 0
CN(C)CCN(Cc1ccc(Cl)cc1)c1ccccn1	neuronal differentiation score	[1]; library: Spectrum	inactive: 0
CC(Oc1ccccc1)C(=O)N[C@@H]1C(=O)N2[C@@H]1SC(C)(C)[C@@H]2C(=O)O (stereo not given in full)	neuronal differentiation score	[1]; library: Spectrum	inactive: 0
C[C@]1(Cn2ccnn2)[C@H](C(=O)O)N2C(=O)C[C@H]2S1(=O)=O	neuronal differentiation score	[1]; library: Spectrum	inactive: 0
OC(c1cc(C(F)(F)F)nc2c(C(F)(F)F)cccc12)C1CCCCN1 (stereo not given)	neuronal differentiation score	[1]; library: Spectrum	inactive: 0
